As a reminder, the AUC is the area under the concentration-time curve, a measure of exposure.

For data set [1] the following is noted: rats, mean, cited from earlier work.
In data set [2] the test system is SARS-CoV-2. Nature of the data set: in vitro.
Data set [3] relates to SARS-CoV-2. In words: Plaque reduction assay in Vero E6 monolayers. In kind it is cell-based. In general terms: In a plaque reduction assay, fewer plaques than in the control indicate reduced infectivity or spread.

`CC(CCCn1c(=O)sc2cc(F)ccc21)N1CCN(C2CCCCC2)CC1` (stereo not shown) [AZ66]: in data set [1] (intravenous 5 mg/kg dose), the AUC was 63.2 µg·h/mL. In data set [1] (oral dosing of 20 mg/kg), the “area under the curve (AUC)” value was 158.22 µg·h/mL. For the same compound, the selectivity ratio at 72 h in the data set on SARS-CoV-2 [2] is over 2.82. Moreover, in the data set with SARS-CoV-2 [3], the “selectivity index (CC50/EC50) by plaque assay” value is reported as over 19.72.

The record behind these values is patent US20240307370A1, “SIGMA RECEPTOR LIGANDS FOR TREATING SARS-COV-2 INFECTION” (University of Florida Research Foundation, Incorporated, priority 2021, published 2024).
